Data taken from PMC4472782, “Antibacterial Characterization of Novel Synthetic Thiazole Compounds against Methicillin-Resistant Staphylococcus pseudintermedius” (PLoS ONE, 2015).
Structures can show the parent of a compound that is named as a salt.

Test system: murine macrophage cell line (J774.A1)
Assay: In vitro cytotoxicity analysis (MTS assay)
Assay type: cell-based
Conditions: 10 μg/mL, J774.A1, two hours
Procedure: Compounds were assayed at concentrations of 5 μg/mL, 10 μg/mL, 20 μg/mL, and 40 μg/mL against a murine macrophage cell line (J774.A1) (ATCC TIB-67, American Type Culture Collection (ATCC), Manassas, VA, USA) to determine the potential toxic effect in vitro. Cells were cultured in Dulbeco’s modified Eagle’s medium (Sigma-Aldrich, St. Louis, MO, USA) with 10% fetal bovine serum (USA Scientific, Inc.) at 37°C with 5% CO2. Controls received DMSO alone at a concentration equal to that in drug-treated cell samples. The cells were incubated with the compounds in a 96-well plate at 37°C and 5.0% CO2 for two hours prior to addition of the assay reagent MTS 3-(4,5-dimethylthiazol-2-yl)-5-(3-carboxymethoxyphenyl)-2-(4-sulfophenyl)-2H-tetrazolium) (Promega, Madison, WI, USA). Absorbance readings were taken using a kinetic ELISA microplate reader (Molecular Devices, Sunnyvale, CA, USA). The quantity of viable cells after treatment with each compound was expressed as a percentage of the control, DMSO.
All statistical analyses were performed with GraphPad Prism 6.0 (GraphPad Software, La Jolla, CA). Data generated from cytotoxicity analysis of the thiazole compounds against J774.A1 cells and the 260 and 280 nm cell leakage analysis were analyzed using one-way ANOVA, with post hoc Tukey's multiple comparisons test (P < 0.05).

With CCC[C@@H]1C[C@@H](C(=O)N[C@@H]([C@H]2O[C@H](SC)[C@H](O)[C@@H](O)[C@H]2O)[C@H](C)Cl)N(C)C1 [Clindamycin, Clindamycin hydrochloride monohydrate, reference compound] the “toxicity to murine macrophage cells (MTS assay)” value was “not toxic”.
